Assay [1] addresses Flag-tagged Myocardin deletion mutant of the basic domain [Myocardin (1-807)] (UniProt Q8VIM5). Briefly: co-IP.
Assay [2] addresses Flag-tagged Myocardin mutant of the Q-rich domain [Myocardin (1-807)] (UniProt Q8VIM5). Briefly: co-IP.

Amino acid sequences for entries named in this document (tags omitted). A change or cut given only in a name is not applied to a line headed by its entry.
UniProt Q8VIM5: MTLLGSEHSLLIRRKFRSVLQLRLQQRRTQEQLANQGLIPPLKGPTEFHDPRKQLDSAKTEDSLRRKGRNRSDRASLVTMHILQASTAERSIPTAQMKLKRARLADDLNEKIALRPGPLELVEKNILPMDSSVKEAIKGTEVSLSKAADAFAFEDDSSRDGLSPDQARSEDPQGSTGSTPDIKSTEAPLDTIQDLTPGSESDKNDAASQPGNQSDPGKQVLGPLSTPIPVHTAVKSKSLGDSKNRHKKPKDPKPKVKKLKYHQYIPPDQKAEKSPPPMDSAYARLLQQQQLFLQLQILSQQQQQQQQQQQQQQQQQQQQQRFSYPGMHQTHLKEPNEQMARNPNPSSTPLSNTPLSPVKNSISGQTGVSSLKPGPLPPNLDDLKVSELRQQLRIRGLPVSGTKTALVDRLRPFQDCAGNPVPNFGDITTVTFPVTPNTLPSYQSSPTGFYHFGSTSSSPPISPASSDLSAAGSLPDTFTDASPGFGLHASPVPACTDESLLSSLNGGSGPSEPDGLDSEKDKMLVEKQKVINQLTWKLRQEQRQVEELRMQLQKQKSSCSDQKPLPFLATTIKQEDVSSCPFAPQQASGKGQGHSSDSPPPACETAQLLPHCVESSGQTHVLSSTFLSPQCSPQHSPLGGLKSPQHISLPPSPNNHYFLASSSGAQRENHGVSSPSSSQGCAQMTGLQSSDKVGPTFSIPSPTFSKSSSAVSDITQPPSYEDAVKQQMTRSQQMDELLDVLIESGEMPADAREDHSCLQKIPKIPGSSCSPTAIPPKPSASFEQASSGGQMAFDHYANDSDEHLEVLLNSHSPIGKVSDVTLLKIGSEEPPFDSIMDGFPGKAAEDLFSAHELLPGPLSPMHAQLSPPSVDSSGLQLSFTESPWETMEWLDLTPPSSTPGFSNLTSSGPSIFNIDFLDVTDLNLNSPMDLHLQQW
UniProt P40763: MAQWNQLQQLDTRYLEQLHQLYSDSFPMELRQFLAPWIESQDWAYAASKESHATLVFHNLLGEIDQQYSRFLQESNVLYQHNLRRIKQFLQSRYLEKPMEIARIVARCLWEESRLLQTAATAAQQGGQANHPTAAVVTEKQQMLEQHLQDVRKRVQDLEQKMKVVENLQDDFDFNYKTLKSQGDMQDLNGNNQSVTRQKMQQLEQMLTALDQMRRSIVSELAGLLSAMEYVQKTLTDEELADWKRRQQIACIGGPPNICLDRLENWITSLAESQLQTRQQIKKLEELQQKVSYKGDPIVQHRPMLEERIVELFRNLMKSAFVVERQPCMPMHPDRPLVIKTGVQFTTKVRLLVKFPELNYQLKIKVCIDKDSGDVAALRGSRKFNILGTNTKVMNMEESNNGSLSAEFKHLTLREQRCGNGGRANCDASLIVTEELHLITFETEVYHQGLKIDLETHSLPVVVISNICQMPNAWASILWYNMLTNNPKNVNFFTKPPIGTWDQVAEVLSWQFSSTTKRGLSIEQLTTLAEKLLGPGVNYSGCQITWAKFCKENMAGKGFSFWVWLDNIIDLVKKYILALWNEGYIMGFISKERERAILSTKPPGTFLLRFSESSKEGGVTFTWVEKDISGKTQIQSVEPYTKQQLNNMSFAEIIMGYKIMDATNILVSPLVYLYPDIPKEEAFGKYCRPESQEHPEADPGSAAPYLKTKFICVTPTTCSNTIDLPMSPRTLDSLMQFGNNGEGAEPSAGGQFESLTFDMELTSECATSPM

Results are given in words; binding and its absence hold for the method and conditions named. Binding seen in cells or lysates may run through a third protein. For some assays here: Binding can be weak; no strength is given.

On to “Myc-STAT3 (full-length STAT3 with Myc tag, Myc-pCDNA3.1-STAT3) (from UniProt P40763 1-770)”, for which the binding result is recorded as “no binding” in assay [1] and “binds” in assay [2].

(Values after paper doi:10.1101/2020.11.21.392902.)
